Primary screen of a compound library

Data taken from ChEMBL document CHEMBL3988442, “University of Dundee, Small-Polar-MMV Screening Library” (2021).

The filed quantity is “Percent Effect” (%).
The record does not define 0% and 100%; most values in the screen are far below 50% and negative numbers occur (in some assays of this library far below -100).
This is an unselected part of the compounds tested.
Two or more numbers in one place are separate tests of the same structure; such repeats can differ widely.

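Cell assay of Leishmania donovani living inside macrophages; the read-out is not stated. Concentration: 30 µM. The record gives no direction; compounds that gave an IC50 in retests scored well above the rest, so higher reads as stronger inhibition. Size under these conditions: about 69,000 compounds, about 1,000 of them at 50% or above in at least one test.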

Compound | effect
Cn1nnc2c1CCN(S(C)(=O)=O)C2COCC1CC1 (centres unmarked) | 1.775 & 2.821
Cc1nsc(C(=O)NCCc2ccc(S(N)(=O)=O)cc2)n1 | 9.994
Cc1nn(C)c2c(=O)n(CC(=O)Nc3cc(Cl)cc(Cl)c3)nnc12 | 10.33
Nc1cc2c(nn1)CCN(C(=O)c1csc(-c3ccccc3)n1)C2 | 12.06
CN(C)S(=O)(=O)NCC(O)c1cc2ccccc2s1 (centres unmarked) | 22.48
CN(C)[C@@H]1CN(C(=O)c2ccc3ccccc3n2)C[C@H]1O | -5.463
[H][C@]12CCN(c3cc(OC)ncn3)[C@@]1([H])C[C@H](C(=O)NC(C)C)O2 | 3.135
O=C(O)[C@@H]1CN(CCOCCO)C[C@H]1c1ccccc1 | -72.16
CCCc1ccc(CN2CCC3(CCC(=O)N(C)CC3)CC2)o1 | -48.75
[H][C@]12CC[C@]([H])(CN(C3Cc4ccccc4C3)C1)N(C(=O)CNC(N)=O)C2 | 18.36
Cc1nc(N2CCCC(C)C2)nc2cc(S(C)(=O)=O)ccc12 (centres unmarked) | 9.594
CCOc1ccc(Cl)c(C(=O)N2CCN(CCO)CC2)n1 | 2.722
CN(Cc1cccc(F)c1)C(=O)c1cc2c([nH]c1=O)CCCC2=O | 29.64
CNc1cc(C)nc(C2COCCN2CCc2ccccc2)n1 (centres unmarked) | 23.87
COC(=O)CN(C(=O)c1ccc(Cl)cn1)c1cccc(F)c1 | -3.076
CCc1noc(CNc2ccc(C(=O)N3CCCC(C)C3)cc2C)n1 (centres unmarked) | 22.97
O=C(NC1(c2cccc(F)c2)CCOCC1)c1ccccn1 | -11.19
[H][C@@]12CNC(=O)[C@H](C)[C@]1([H])CN(Cc1cc(OC)cc(OC)c1)C2 | -3.119
COc1ccc2[nH]cc(C(=O)CNc3nc(C)cs3)c2c1.I | 2.544
NC(=O)c1cc(NC(=O)N2CCOCC2)ccc1F | 17.6
CN1CCN(S(=O)(=O)c2ccc(C(=O)N3CC[C@@H](O)C3)cc2)CC1=O | 13
Cc1ccc(C)c(C(C(=O)O)N2CCCN(Cc3ccccn3)CC2)c1 (centres unmarked) | -3.347
CSCC(=O)N(Cc1ccccn1)Cc1ccccc1C | 10.58
CC(C)c1n[nH]c(C2CN(C(=O)c3cn4ccccc4n3)CCO2)n1 (centres unmarked) | -29.29
Cc1ccc(CNC(=O)CN2CCCC(Cn3cncn3)C2)cc1 (centres unmarked) | 15.14
Cc1noc(C)c1-c1cncc(C2CCCN2Cc2c[nH]cn2)n1 (centres unmarked) | 22.11
O[C@@H]1C[C@@H](c2nc(-c3ccccc3)no2)N(CC2CCCCC2)C1 | 18.41
CCOC(=O)Cn1ccc(NC(=O)Cc2ccccc2F)n1 | 5.095
COC(=O)N1CCN(Cc2csc(-c3ncccn3)n2)CC1 | 8.013
CCn1cc(CN2CCCC3(CCC(=O)N(CCC(C)C)C3)C2)cn1 (centres unmarked) | 28.41
COc1ccc2oc(C(C)NC(=O)NCC(C)(C)C(N)=O)c(C)c2c1 (centres unmarked) | 37.72 & 0.4653
CCN(C)C[C@@H]1CN(Cc2cnc3c(S(C)(=O)=O)cnn3c2)C[C@@H]1CO | 8.408
[H][C@@]12CCN(S(=O)(=O)N(C)C)C[C@@]1([H])O[C@@H](c1ccnc(C)n1)C2 | 0.2937
CCOc1ccnc(N2CCN(C(=O)c3ccoc3C)CC2)n1 | 13.15
CCOC(=O)NC(CNC(=O)c1cc(Cl)ccn1)CC(C)C (centres unmarked) | 14.55
CC(C)C(C)N(Cc1cnc2ccccc2n1)Cc1ccco1 (centres unmarked) | -3.704
CC(C)CCN1C(=O)c2ccc(C(=O)NCCc3c[nH]cn3)cc2C1=O | 1.999 & 3.183
COc1ccc(S(=O)(=O)N2Cc3c(CN(C)C)nn(C)c3C2)cc1.O=C(O)C(F)(F)F | 14.22 & 13.71
Cc1n[nH]c(C2CN(C(=O)CCc3cscn3)CCO2)n1 (centres unmarked) | 47.94
COc1ccc(C(=O)N2CCCCC2c2nccs2)c(OC)c1 (centres unmarked) | 15.7
O=C(NCC1(O)COCCN(Cc2ccc(O)cc2)C1)c1cnccn1 (centres unmarked) | 19.13
Cc1ccc(CN2Cc3nccn3CC(Cn3cncn3)C2)s1.O=C(O)C(F)(F)F (centres unmarked) | 34.63
CCOc1ccccc1Nc1nc2c(C)nn(C)c2c(=O)n1C | 1.159
[H][C@@]12CS(=O)(=O)C[C@]1([H])N(S(=O)(=O)c1cccc(F)c1)CCN2C(=O)CC | 19.41
Cc1nc(-c2ccccc2C)n(CC(=O)NC(C)C)n1 | -21.26
CC(C)c1nc(CN(C)C(=O)CCc2ccc3c(c2)OCO3)cs1 | -19

For reference, 5 entries once more:

For COc1ccc(C(=O)N2CCCCC2c2nccs2)c(OC)c1 (centres unmarked) the result was 15.7%.
For CCc1noc(CNc2ccc(C(=O)N3CCCC(C)C3)cc2C)n1 (centres unmarked) the result was 22.97%.
For COc1ccc2[nH]cc(C(=O)CNc3nc(C)cs3)c2c1.I the result was 2.544%.
For CCn1cc(CN2CCCC3(CCC(=O)N(CCC(C)C)C3)C2)cn1 (centres unmarked) the result was 28.41%.
For COc1ccc(S(=O)(=O)N2Cc3c(CN(C)C)nn(C)c3C2)cc1.O=C(O)C(F)(F)F the result was 14.22% & 13.71%.